Experimental data from article doi:10.1101/2021.05.24.445478.

Molecular target: T1, FLAG-tagged CycK protein (human) (UniProt O75909)
T1 sequence: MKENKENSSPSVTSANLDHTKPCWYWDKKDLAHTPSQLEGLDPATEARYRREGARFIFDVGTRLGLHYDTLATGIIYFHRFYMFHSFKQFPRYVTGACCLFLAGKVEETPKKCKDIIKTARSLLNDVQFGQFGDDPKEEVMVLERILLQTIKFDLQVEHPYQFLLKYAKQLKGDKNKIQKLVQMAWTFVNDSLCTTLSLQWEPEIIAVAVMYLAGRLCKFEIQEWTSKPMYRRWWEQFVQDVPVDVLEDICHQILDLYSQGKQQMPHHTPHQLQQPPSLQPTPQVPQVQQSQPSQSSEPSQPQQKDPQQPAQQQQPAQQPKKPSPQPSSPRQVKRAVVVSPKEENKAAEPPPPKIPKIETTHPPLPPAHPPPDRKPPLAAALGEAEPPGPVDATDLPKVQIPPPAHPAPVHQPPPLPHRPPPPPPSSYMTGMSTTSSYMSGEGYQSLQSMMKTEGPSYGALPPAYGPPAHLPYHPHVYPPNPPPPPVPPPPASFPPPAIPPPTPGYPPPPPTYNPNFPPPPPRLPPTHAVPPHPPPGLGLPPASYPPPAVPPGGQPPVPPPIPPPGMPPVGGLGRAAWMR
Experiment: co-IP

In the case of “HIV-1 Nef (from the WT HIV-1 proviral vector)”, the binding is reported as “binds”.

No constants are given. Whether binding was seen depends on the method and setting. Binding seen in cells or lysates may run through a third protein. Binding can be weak; no strength is given. Where a sequence is shown, tags or fusion partners need not be part of it.
